Data on 7 molecules can be found in paper doi:10.1101/2025.08.27.672522.

Chains of the proteins cited; added tags and fusions are not shown.
UniProt Q39026: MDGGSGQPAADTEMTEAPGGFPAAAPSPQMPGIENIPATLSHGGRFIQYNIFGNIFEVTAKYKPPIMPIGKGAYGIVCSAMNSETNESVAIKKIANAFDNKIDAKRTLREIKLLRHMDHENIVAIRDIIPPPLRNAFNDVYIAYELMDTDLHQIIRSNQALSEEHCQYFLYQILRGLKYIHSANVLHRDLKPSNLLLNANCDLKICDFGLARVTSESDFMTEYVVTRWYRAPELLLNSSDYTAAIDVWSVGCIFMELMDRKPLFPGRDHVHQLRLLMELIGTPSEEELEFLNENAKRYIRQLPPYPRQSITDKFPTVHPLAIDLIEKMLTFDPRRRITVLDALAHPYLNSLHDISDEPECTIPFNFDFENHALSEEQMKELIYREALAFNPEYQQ

Residue numbers refer to the chain shown, from its start. Names may count otherwise. Like-named read-outs stand apart in the source and are kept apart here. These are yes or no findings as the source states them, for the method shown. For part of these data: Binding seen in cells or lysates may run through a third protein. Some results given as binding are weak or reduced against the parent protein; the word gives no strength. Sequences can lack the tags named with a protein.

Experiment [1] has as its target T1, MAX2, BiFC fusion (Arabidopsis thaliana) (UniProt Q9SIM9).
T1 sequence: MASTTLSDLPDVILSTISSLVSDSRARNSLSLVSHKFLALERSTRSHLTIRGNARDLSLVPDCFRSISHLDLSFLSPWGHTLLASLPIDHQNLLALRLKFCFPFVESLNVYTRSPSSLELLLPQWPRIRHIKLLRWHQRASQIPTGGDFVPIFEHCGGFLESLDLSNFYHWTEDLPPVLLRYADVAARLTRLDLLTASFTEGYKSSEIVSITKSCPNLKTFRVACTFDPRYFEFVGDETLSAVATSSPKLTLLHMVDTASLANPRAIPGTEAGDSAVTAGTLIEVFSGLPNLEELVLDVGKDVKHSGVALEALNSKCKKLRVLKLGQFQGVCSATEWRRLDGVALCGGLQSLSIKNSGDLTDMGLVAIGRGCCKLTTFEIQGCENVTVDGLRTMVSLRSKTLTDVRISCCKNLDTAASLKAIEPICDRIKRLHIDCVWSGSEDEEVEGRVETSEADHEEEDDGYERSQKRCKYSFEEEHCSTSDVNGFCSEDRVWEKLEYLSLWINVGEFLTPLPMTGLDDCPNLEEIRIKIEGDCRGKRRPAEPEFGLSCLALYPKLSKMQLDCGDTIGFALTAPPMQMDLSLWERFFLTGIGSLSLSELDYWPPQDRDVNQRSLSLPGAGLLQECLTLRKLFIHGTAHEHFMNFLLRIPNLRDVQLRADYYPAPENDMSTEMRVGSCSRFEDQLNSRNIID
In words: split reporter.

Experiment [2] addresses T1, MAX2, BiFC fusion (Arabidopsis thaliana). In words: split reporter. The source holds these as a separate data set.
Experiment [3] deals with T2, MAX2-Myc (MAX2-10xMyc) from transgenic Arabidopsis (Arabidopsis thaliana) (UniProt Q9SIM9).
T2 sequence: T1 sequence
The experiment is described as follows: co-IP.

Experiment [4] deals with T3, MORE AXILLARY GROWTH2 (MAX2), yeast two-hybrid fusion (Arabidopsis thaliana) (UniProt Q9SIM9).
T3 sequence: T1 sequence
The experiment is described as follows: two-hybrid.

Experiment [5] deals with T4, MPK3, yeast two-hybrid fusion (Arabidopsis thaliana) (UniProt Q39023).
T4 sequence: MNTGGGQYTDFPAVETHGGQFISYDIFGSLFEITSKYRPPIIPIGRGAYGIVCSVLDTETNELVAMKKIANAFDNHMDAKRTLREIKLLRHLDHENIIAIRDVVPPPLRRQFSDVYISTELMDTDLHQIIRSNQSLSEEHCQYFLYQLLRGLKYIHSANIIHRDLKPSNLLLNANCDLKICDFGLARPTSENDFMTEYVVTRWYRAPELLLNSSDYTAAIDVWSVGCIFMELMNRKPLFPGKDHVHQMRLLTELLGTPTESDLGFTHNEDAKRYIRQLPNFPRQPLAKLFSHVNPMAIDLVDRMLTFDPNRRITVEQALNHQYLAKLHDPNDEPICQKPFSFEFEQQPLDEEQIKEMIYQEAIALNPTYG
In words: two-hybrid.

Experiment [6] has as its target MPK6, yeast two-hybrid fusion (Arabidopsis thaliana) (UniProt Q39026). In words: two-hybrid.

In the case of “BRC1^S34A,S65A (phospho-dead), BiFC fusion (from UniProt A1YKT1 1-433)”, the binding result in experiment [1] is listed as “binds”.

Take “BRC1^S34D,S65D (phospho-mimic), BiFC fusion (from UniProt A1YKT1 1-433)”: the binding result in experiment [1] is reported as “no binding”.

B1: BRC1-EYFP^C (BiFC fusion) (protein, UniProt A1YKT1 1-433)
chain: MNNNIFSTTTTINDDYMLFPYNDHYSSQPLLPFSPSSSINDILIHSTSNTSNNHLDHHHQFQQPSPFSHFEFAPDCALLTSFHPENNGHDDNQTIPNDNHHPSLHFPLNNTIVEQPTEPSETINLIEDSQRISTSQDPKMKKAKKPSRTDRHSKIKTAKGTRDRRMRLSLDVAKELFGLQDMLGFDKASKTVEWLLTQAKPEIIKIATTLSHHGCFSSGDESHIRPVLGSMDTSSDLCELASMWTVDDRGSNTNTTETRGNKVDGRSMRGKRKRPEPRTPILKKLSKEERAKARERAKGRTMEKMMMKMKGRSQLVKVVEEDAHDHGEIIKNNNRSQVNRSSFEMTHCEDKIEELCKNDRFAVCNEFIMNKKDHISNESYDLVNYKPNSSFPVINHHRSQGAANSIEQHQFTDLHYSFGAKPRDLMHNYQNMY
For the molecule B1, the binding entry in experiment [2] is “binds”.

B2: BRC1-HA (BRC1-3xHA) from transgenic Arabidopsis (protein, UniProt A1YKT1 1-433)
chain: B1 chain
As for B2, the binding result in experiment [3] is given as “binds”.

B3: BRC1^S34D,S65D (phospho-mimic), yeast two-hybrid fusion (protein, UniProt A1YKT1 1-433)
chain: B1 chain with S34D, S65D
Consider B3, for which the binding entry in experiment [4] is “no binding”.

B4: BRC1^S34A,S65A (phospho-dead), yeast two-hybrid fusion (protein, UniProt A1YKT1 1-433)
chain: B1 chain with S34A, S65A
Regarding B4, the binding entry in experiment [4] is given as “binds”.

B5: BRANCHED1 (BRC1), yeast two-hybrid fusion (protein, UniProt A1YKT1 1-433)
chain: B1 chain
As to B5, the binding entry in experiment [4] is “binds”; in experiment [5] it was “no binding”; in experiment [6], “no binding”.
